Measurements reported in PubChem BioAssay AID1259425 (University of Nebraska Medical Center, 2018)
This is a random part of about 14,000 reagents tested. Not all columns of the deposit are shown. No sequences are given here. Not given: the time to read-out.

Test: 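Compare each knockdown with KSR1 silencing using changes in marker transcripts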 (primary screen)
Cells: HCT116 human colon cancer cells
Reagent: siRNA pool against human genes, 50 nM siRNA
Measured: 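After 50 nM siRNA pool, branched-DNA assay measures six marker transcripts per well, minus blank, normalised to the geometric mean of two housekeeping transcripts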
Direction: BNIP3L mRNA: higher = more BNIP3L transcript after knockdown; NDRG1 mRNA: higher = more NDRG1 transcript after knockdown; BNIP3 mRNA: higher = more BNIP3 transcript after knockdown

no.	Gene	BNIP3L mRNA, set 1	NDRG1 mRNA, set 1	BNIP3 mRNA, set 1
1	WDR44 (GeneID 54521)	0.112	0.291	0.308
2	ABCA13 (GeneID 154664)	0.172	0.244	0.251
3	NRXN3 (GeneID 9369)	0.082	0.131	0.228
4	CYLC1 (GeneID 1538)	0.255	0.749	0.516
5	OTC (GeneID 5009)	0.0873	0.131	0.246
6	CCL21 (GeneID 6366)	0.052	0.146	0.237
7	EPHA7 (GeneID 2045)	0.088	0.134	0.273
8	RINT1 (GeneID 60561)	0.0726	0.377	0.23
9	AGRN (GeneID 375790)	0.25	0.526	0.674
10	SMG8 (GeneID 55181)	0.0779	0.248	0.211
11	PIGU (GeneID 128869)	0.118	0.114	0.218
12	NBAS (GeneID 51594)	0.203	0.118	0.269
13	ADAM28 (GeneID 10863)	0.129	0.182	0.279
14	TENT5C (GeneID 54855)	0.136	0.185	0.338
15	EPC1 (GeneID 80314)	0.105	0.18	0.278
16	ATF7IP (GeneID 55729)	0.0952	0.167	0.307
17	NSUN5 (GeneID 55695)	0.183	0.174	0.356
18	UGGT2 (GeneID 55757)	0.163	0.0728	0.62
19	TMF1 (GeneID 7110)	0.0906	0.148	0.341
20	DNAJB6 (GeneID 10049)	0.181	0.236	0.323
21	HMGN3 (GeneID 9324)	0.0817	0.181	0.217
22	MORF4L1 (GeneID 10933)	0.128	0.277	0.21
23	HOXD12 (GeneID 3238)	0.0699	0.0797	0.222

Sorted by “BNIP3 mRNA, set 1” (lowest first): some entries from above
Gene	BNIP3L mRNA, set 1	NDRG1 mRNA, set 1	BNIP3 mRNA, set 1
EPC1 (GeneID 80314)	0.105	0.18	0.278
ATF7IP (GeneID 55729)	0.0952	0.167	0.307
NSUN5 (GeneID 55695)	0.183	0.174	0.356

Continued.
no.	Gene	BNIP3L mRNA, set 1	NDRG1 mRNA, set 1	BNIP3 mRNA, set 1
24	PCDHB5 (GeneID 26167)	0.169	0.0802	0.276
25	BLVRA (GeneID 644)	0.0662	0.0716	0.183
26	WDR43 (GeneID 23160)	0.333	0.731	0.583
27	HTATSF1 (GeneID 27336)	0.0895	0.0853	0.225
28	TBX18 (GeneID 9096)	0.0845	0.17	0.277
29	RAB8B (GeneID 51762)	0.0812	0.0869	0.273
30	HSPA13 (GeneID 6782)	0.0586	0.143	0.236
31	SOCS1 (GeneID 8651)	0.169	0.101	0.27
32	ADH4 (GeneID 127)	0.118	0.342	0.23
33	USP37 (GeneID 57695)	0.105	0.185	0.244
34	SLC1A6 (GeneID 6511)	0.0938	0.225	0.401
35	SDC4 (GeneID 6385)	0.0982	0.32	0.271
36	RASGRP1 (GeneID 10125)	0.0731	0.129	0.192
37	FERMT2 (GeneID 10979)	0.134	0.509	0.197
38	ANO8 (GeneID 57719)	0.997	3.72	3.01
39	CSGALNACT1 (GeneID 55790)	0.166	0.373	0.505
40	TMEM177 (GeneID 80775)	0.163	0.1	0.42
41	GNRH1 (GeneID 2796)	0.0722	0.0513	0.184
42	CTCF (GeneID 10664)	0.0896	0.287	0.273
43	SLC19A1 (GeneID 6573)	0.103	0.107	0.287
44	XAGE2 (GeneID 9502)	0.222	0.841	0.658
45	EIF2S3 (GeneID 1968)	0.38	1.42	0.364
46	NCAPD3 (GeneID 23310)	0.132	0.188	0.39
47	PCDHGB2 (GeneID 56103)	0.0633	0.123	0.226
48	HSPA14 (GeneID 51182)	0.212	0.121	0.412
49	GNPTG (GeneID 84572)	0.093	0.42	0.286
50	CFAP92 (GeneID 57501)	0.117	0.0876	0.152
51	PCNX4 (GeneID 64430)	0.0788	0.254	0.344
52	SIGLEC1 (GeneID 6614)	0.209	0.895	0.434
53	ELP6 (GeneID 54859)	0.104	0.126	0.233
54	ADORA2B (GeneID 136)	0.163	0.16	0.291
55	COXFA4L2 (GeneID 56901)	0.121	0.223	0.338
56	FLG (GeneID 2312)	0.0859	0.486	0.32
57	SLC6A14 (GeneID 11254)	0.0816	0.112	0.26
58	PSMD4 (GeneID 5710)	0.107	0.134	0.34
59	ACTR3B (GeneID 57180)	0.0845	0.107	0.303
60	HUNK (GeneID 30811)	0.129	0.155	0.177
61	TEX101 (GeneID 83639)	0.142	0.457	0.28
62	NBPF1 (GeneID 55672)	0.0965	0.221	0.441
63	PELO (GeneID 53918)	0.129	0.297	0.398
